{"source": "patent US8932579B2", "about": "“Biological effects of compositions comprising rosmarinic acid” (Nestec S.A., priority 2006, dated 2015)", "test_system": "chlorogenate esterase", "test": "Cleavage of rosmarinic acid by enzymes (chlorogenate esterase hydrolysis)", "type": "biochemical", "settings": "for rosmarinic acid hydrolysed: 0.02 units of enzyme, pH 6.6, after 4 h"}
{"smiles": "O=C(/C=C/c1ccc(O)c(O)c1)O[C@H](Cc1ccc(O)c(O)c1)C(=O)O", "note": "[rosmarinic acid]", "values": [{"measurement": "rosmarinic acid hydrolysed", "setting": "1 mg substrate, 40° C.", "value": "more than 90%"}, {"measurement": "rosmarinic acid hydrolysed", "setting": "6 mg substrate, 40° C.", "value": 40, "unit": "%"}, {"measurement": "hydrolysis", "setting": "0.02 U/mg, pH 5.0", "value": "no hydrolysis was observed"}, {"measurement": "transformation of rosmarinic acid", "setting": "0.02 U/mg, pH 8.0, after 2 h", "value": "completely transformed"}, {"measurement": "transformation into caffeic acid and 3,4-dihydroxy phenyllacetic acid", "setting": "1 U/mg of substrate, phosphate buffer pH 6.6, 40° C., after 30 min", "value": "completely transformed"}]}
